This is an account of results in article PMC5072831, “Novel Nuclear Factor-KappaB Targeting Peptide Suppresses β-Amyloid Induced Inflammatory and Apoptotic Responses in Neuronal Cells” (PLoS ONE, 2016).

Amino acid sequences for entries named in this document (tags omitted).
UniProt Q04206: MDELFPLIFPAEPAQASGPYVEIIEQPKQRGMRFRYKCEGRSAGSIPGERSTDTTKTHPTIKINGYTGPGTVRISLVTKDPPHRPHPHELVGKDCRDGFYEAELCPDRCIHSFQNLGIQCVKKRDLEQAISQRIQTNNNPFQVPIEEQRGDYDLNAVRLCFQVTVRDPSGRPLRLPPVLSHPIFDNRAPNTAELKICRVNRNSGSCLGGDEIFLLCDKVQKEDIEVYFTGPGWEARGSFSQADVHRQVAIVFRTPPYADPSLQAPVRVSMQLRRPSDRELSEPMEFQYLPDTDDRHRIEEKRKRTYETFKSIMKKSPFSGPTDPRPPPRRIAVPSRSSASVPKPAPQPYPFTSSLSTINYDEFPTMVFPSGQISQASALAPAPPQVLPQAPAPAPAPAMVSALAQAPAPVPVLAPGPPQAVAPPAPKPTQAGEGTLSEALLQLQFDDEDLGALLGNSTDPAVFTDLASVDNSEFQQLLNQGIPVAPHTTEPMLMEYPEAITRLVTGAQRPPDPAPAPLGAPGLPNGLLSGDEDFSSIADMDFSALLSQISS

The target of the test is T1, purified recombinant human GILZ protein (r-GILZ) with GST tag (human) (UniProt Q99576).
T1 sequence: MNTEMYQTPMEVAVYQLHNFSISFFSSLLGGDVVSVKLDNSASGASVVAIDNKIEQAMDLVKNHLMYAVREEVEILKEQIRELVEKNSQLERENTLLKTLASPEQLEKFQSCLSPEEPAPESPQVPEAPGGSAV
In words: ELISA; high binding plates coated with r-GILZ (0.5μM to 20μM), probed with 80μM r-p65, detected with anti-DDK antibody; absorbance at 650nm; both purified.

These are yes or no findings as the source states them, for the method shown. Some results given as binding are weak or reduced against the parent protein; the word gives no strength. Where a sequence is shown, tags or fusion partners need not be part of it.

“Recombinant human p65 protein (r-p65) with DDK tag (from UniProt Q04206 1-551)”: the binding entry is given as “binds”.
